The values are deposited in ChEMBL (CHEMBL3988442, “University of Dundee, Small-Polar-MMV Screening Library” (2021)).

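Viability assay of Plasmodium falciparum sporozoites; the read-out is not stated. The concentration is filed as 10 mM, unlikely as a test dose, so the dose is not known. Higher reads as lower viability (inferred: compounds with an IC50 in retests scored well above the rest). Strong results were mostly tested again. Size under these conditions: about 34,000 compounds, about 280 of them at 50% or above in at least one test.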

The filed quantity is “Percent Effect” (%). The controls that fix the scale are not given in the record; negative values are as filed. This is an unselected part of the compounds tested. Two or more numbers in one place are separate tests of the same structure; such repeats can differ widely.

structure | Percent Effect
COC(=O)c1ccc(CNCc2cn(C)nc2C)cc1 | 11.2%
[H][C@@]12CC[C@H](Oc3ccccc3)[C@]1([H])CN(C(=O)COCCOC)C2 | 4.65%
O=C(NCCc1ccccc1)C1CCN(C(=O)Cn2cncn2)C1 (stereo not given) | 6.869%
Cc1cc(C)c(CNc2nc3ccccc3cc2CO)c(=O)[nH]1 | 24.75%
O=C(Nc1ccnc(OC2CCOC2)c1)C1CCC1 (stereo not given) | -22.62%
CN(C)c1cccc(C(=O)N2CCC(c3n[nH]c(C4CC4)n3)CC2)c1 | 6.057%
[H][C@@]12CN(Cc3cccs3)C[C@H](C(=O)Nc3cccnc3)[C@]1([H])CCO2 | -3.322%
CN(Cc1nccn1C)c1ccc(-c2nccn2C)nn1 | -4.7% & -1.79%
CN(C)CCN(C)C(=O)c1ccccc1-n1cc(CN(C)C)cn1 | 14.08%
Br.CCOc1ccc(N(CC(=O)c2ccccc2)C2=NCCCCC2)cc1 | 1.917%
COC(=O)N1CC(C)=C(C)CN1C(=O)Nc1cccc(Cl)c1 | -10.81%
CCN(Cc1ccc2c(c1)OCCO2)C(=O)c1ccc(C)[nH]c1=O | -0.2979%
CCN(Cc1nc2c(cnn2C)c(=O)[nH]1)Cc1ccco1 | 7.352%
CC(=O)c1ccc(C(=O)NCC2Cc3ccccc3O2)s1 (stereo not given) | -1.48% & -48.2%
Cc1cccc(-c2nccnc2C2CCN(C)CC2)c1C | -5.244%
CC(C)OCCOCc1cccc(NC(=O)NCc2ccccn2)c1 | -13.74%
Cc1noc(C2CCCN(C(=O)c3ccc(N(C)C)nc3)C2)n1 (stereo not given) | 8.423%
[H][C@@]12COC[C@]1(COc1ccc(C#N)cn1)CN(Cc1scnc1C)C2 | -12.63%
CC(=O)N1CCC(c2cncc(Cl)n2)CC1 | 6.006%
Cc1nn(C)cc1S(=O)(=O)NC1(CN2CCOCC2)CCCCC1 | 1.839%
CCN(CC1CCCO1)C(=O)Nc1cc(OC)c(OC)cc1C (stereo not given) | 3.043%
[H][C@@]12CCN[C@]1([H])CN(S(=O)(=O)c1ccccc1)C2 | -9.099% & -3.4% & -1.54%
Cc1ncc(C(=O)N2CC(C(=O)N3CCCCCC3)C2)c(C)n1 | -0.57%
CC[C@@H](CO)Nc1nccc(-c2cnc3sc(C)cn3c2=O)n1 | 7.536%
COc1cccc(S(=O)(=O)CCN2CCn3c(C)nnc3C2)c1 | -6.287%
CN(C)c1cncc(C2CCN(CC3(O)CCCCC3)CC2)n1 | -75.17%
O=C(CS(=O)(=O)Cc1ccc(F)cc1)NC1CCCCNC1=O (stereo not given) | 2.966%
Cc1noc(C)c1C(=O)NCc1ccc(N2CCCCCC2)nc1 | 4.338%
CCc1nnsc1C(=O)N1CCCC(c2nc3ccccc3[nH]2)C1 (stereo not given) | 2.555% & 6.342%
CCCc1ncc(CNC2(c3ccc(Cl)cc3)CC2)cn1 | 1.092%
Cc1nc(N2CCCC2)nc2c1CCN(Cc1ccco1)CC2.O=C(O)C(F)(F)F | 4.437%
CC(C)NC(=O)N1CCN(CCn2cccn2)c2ncccc2C1.O=C(O)C(F)(F)F | 6.726% & -35.25% & -37.94%
O=C(N1CCOCC1)N1CCN(c2ccncc2Cl)CC1 | -8.653%
Cn1ccnc1CN1CCC2(CC1)CN(c1cncnc1)C(=O)CO2.O=C(O)C(F)(F)F | -1.302%
Cc1nc(C2CCN(C(=O)c3ccnn3C)CC2)c2sccn12 | 2.332%
[H][C@@]12COC[C@H](C(=O)N3CCCO3)[C@]1([H])CN(Cc1c(C)noc1C)C2 | 13.66%
COCC(=O)N[C@@H]1CN(Cc2ccc3c(c2)OCCO3)C[C@H]1O | 0.4674%
O=C(O)C(F)(F)F.O=C(O)C(F)(F)F.[H][C@@]12CCN(c3ncc(F)cn3)[C@]1([H])CC[C@@H](C(=O)NCc1ccccn1)O2 | -7.552%
CC(C)(CO)CCCNC(=O)N1CCc2c(F)ccc(F)c2C1 | -43.36% & -43.76%
O=C(CCn1cnnc1)N1CCCC(c2ncc[nH]2)C1 (stereo not given) | -18.77%
CCC(O)CN1CCN(C(=O)c2cc(Cl)cc3cccnc23)CC1 (stereo not given) | 8.369%
CNc1cc2c(nn1)CCN(C(=O)c1ccc(-n3cccn3)nc1)C2 | -2.686%
CN(C)CCN1C(=O)CCCC12CCCN(Cc1cccs1)C2.O=C(O)C(F)(F)F.O=C(O)C(F)(F)F (stereo not given) | 5.692%
COC(=O)CCC(=O)N1CCc2[nH]nc(-c3ccc(F)c(F)c3)c2C1 | 5.998%
CC(=O)N1CCCN(C(=O)NCc2ccc(Cl)s2)CC1 | 13.39%
Cn1cc(NS(=O)(=O)c2ccc(OC(F)(F)F)cc2)ccc1=O | 0.2467%
NC(=O)C1(c2cnccn2)CCCN1Cc1ccc(Cl)c(F)c1 (stereo not given) | 0.8661%
CCc1cccc2c(CC(=O)N(C)CCN(C)C)c(C)[nH]c12.O=C(O)CC(O)(CC(=O)O)C(=O)O | 3.657%
Cc1ncncc1C(=O)N1CCC(O)(CN(C)Cc2ccc(F)cc2)C1 (stereo not given) | 2.944%
COCCc1noc(CN(C)c2cc(C)ncn2)n1 | -27.28% & -6.118% & -29.17%
CN1CCN([C@@H]2CN(C(=O)CCOc3ccccc3)C[C@H]2O)CC1 | 5.7%
CCS(=O)(=O)N1CCN(Cc2cccnc2)c2nc(C)ccc2C1.O=C(O)C(F)(F)F.O=C(O)C(F)(F)F | 0.1189%
COc1ccccc1OCCNCCn1cccn1 | -9.192% & 47.51% & -5.182%
CC(C)c1nccn1-c1nccnc1C1CCCN1Cc1ccccc1 (stereo not given) | 7.289%
CN(C(=O)CCc1cccs1)C1CCCN(C2Cc3ccccc3C2)C1 (stereo not given) | -9.386%
CCCc1nnc(NC(=O)N2CCCC(NC(C)=O)C2)s1 (stereo not given) | 54.93% & 67.74%
Cc1cnn(CC(C)NCc2ccc(OCc3cscn3)cc2)c1 (stereo not given) | -38.04% & 4.24% & -44.37%
COCCN1CCN(Cc2ccncc2)c2ncccc2C1.O=C(O)C(F)(F)F.O=C(O)C(F)(F)F.O=C(O)C(F)(F)F | -9.983%
Cc1ccc(C(=O)N2Cc3ccccc3C2)cc1N1CCNC1=O | -8.584%
COCC1CN(C(C)=O)CCN(c2cc(C)ncn2)C1 (stereo not given) | 19.45%
Cn1ccc(C(=O)Nc2cc(F)ccc2OCC2CCCO2)cc1=O (stereo not given) | -0.2387%
CN(C)C(=O)c1cccnc1SCc1ccccc1Cl | -19.98%
CC(C)c1nnc2sc(CC3CCS(=O)(=O)C3)nn12 (stereo not given) | 1.523%
CCn1ccnc1CN1CCC(Oc2ccccc2F)(C(=O)O)CC1 | -1.561%
Cc1ncnc2c1CCN(C(=O)c1ccncc1F)CC2.O=C(O)C(F)(F)F | 5.724%
CN(C)S(=O)(=O)N1CC(c2nc(N)ncc2-c2ccc(F)cc2)C1 | 8.266%
CNC(=O)c1cn[nH]c1C1(C)CCCN(Cc2nccn2C(C)C)C1 (stereo not given) | 6.398%
Cn1c(C2CC2)nc2c1CCN(CCOc1ccccc1C#N)C2 | 2.463%
Cc1nn(C)c(Cl)c1C1CCCN1CCc1ccccn1 (stereo not given) | -15.27%
Cc1nsc(N2CCCN(c3nc(C4CC4)ns3)CC2)n1 | -4.368% & 9.158% & 1.435%
Cc1cc(C)nc(N2CCCC2c2[nH]ncc2C(=O)N(C)C)n1 (stereo not given) | -6.91%
CN(Cc1cn2c(n1)CN(Cc1ccc(F)cc1)CC2)Cc1ccco1.O=C(O)C(F)(F)F.O=C(O)C(F)(F)F | -2.344%
COc1ccccc1C1(NCc2c(C)nc3c(C)cccn23)CCCC1.Cl | 7.283%
CCCC(O)CN1CCC(=O)N(CCOC)Cc2cc3c(cc21)OCO3 (stereo not given) | -33.79%
CC(C)c1[nH]c2ncccc2c1CN1CCOCC1.Cl | 9.751%
CNC(=O)CN(C)C(=O)c1cc2ccccc2cc1OC | -8.992%
CC(C)c1cc2c(O)nc(CSCC(=O)O)nc2s1 | 42.11% & 37.5% & 43.64%
CC(C)C(C(=O)N1CCCN(Cc2nccn2C)CC1)N1CCCC1 (stereo not given) | 3.592%
COc1ccc(OC)c(Sc2ncccc2C(=O)NCC2CC2)c1 | -3.916%
O=C(NCCOc1ccc2c(c1)CCC2)N1CCS(=O)(=O)CC1 | 19.48%
Cc1cccc(C)c1OCCNC(=O)C[S+]([O-])C1CCCC1 (stereo not given) | -5.861%
O=C(O)C(F)(F)F.O=C(c1ccccn1)N1CCC2(CCCN(c3nncs3)C2)C1 (stereo not given) | 1.107%
CCc1nnc2n1CCN(Cc1ncc(-c3ccccc3)o1)C2 | 2.483%
CCN1CCCC(CNC(=O)C2(c3cccc(Cl)c3)CC2)C1 (stereo not given) | -11.93%
CSCC(=O)N1CCCC(CCC(=O)N(C)CCc2ccccn2)C1 (stereo not given) | -5.322%
O=C(O)c1ccccc1-c1cnc(CNC(=O)C2CCOCC2)nc1 | -7.316%
CNC(=O)[C@@H]1CN(C(=O)C2CCC2)C[C@H]1c1ccnc(N2CCCC2)n1.Cl | 4.249%
[H][C@@]12COC[C@]1([H])[C@H](OCc1ccccn1)CN2Cc1ccoc1 | 12.72%